From PubChem BioAssay (NCATS)
This list was built around the results that the source calls inconclusive (neither active nor inactive); the mix of calls is not that of the screen. Potencies beside an inconclusive call are fits to weak or partial responses and may not hold up. The source made the active and inactive calls. Calls follow the shape of the dose curve; as a rule, active = well fitted curve in the direction sought with a large enough effect; inconclusive = small, poorly fitted or top-dose-only effect, or another doubt; inactive = no such curve, though single readings can be large; an effect the other way counts as inactive or inconclusive.

Columns and labels:
[1] = Quantitative High-Throughput drug screen in 47 multiple myeloma cell lines against the NCATS MIPE library collection: KHM11_PLB cell viability assay (AID 1918962); settings: KHM11 myeloma cell viability, CellTiter-Glo ATP luminescence, 48 h; series mostly up to 45.8 µM; also: nearly all actives have a fitted effect of over 35% in size
How it was run: (§1)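 qHTS of the MIPE 4.0 collection: 500 myeloma cells/well, 48 h drug exposure at 37C in 5% CO2, then CellTiter-Glo for 5 min at room temperature before luminescence reading.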

[2] = Quantitative High-Throughput drug screen in 47 multiple myeloma cell lines against the NCATS MIPE library collection: JIM1_ECACC cell viability assay (AID 1918964); settings: JIM1 myeloma viability, CellTiter-Glo ATP luminescence, 48 h; viability (% of DMSO): at 45.8 µM (top of the series)
How it was run: (§2)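 CellTiter-Glo luminescence (ATP) after 48 h compound exposure, 37C/5% CO2; 500 cells/well; MIPE 4.0 approved/investigational drugs pinned in; DMSO = 100%, media only = 0% viability.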

[3] = Quantitative High-Throughput drug screen in 47 multiple myeloma cell lines against the NCATS MIPE library collection: INA6_PLB cell viability assay (AID 1918965; also: nearly all actives have a fitted effect of over 55% in size); settings: INA6 myeloma viability, CellTiter-Glo ATP luminescence, 48 h; series mostly up to 45.8 µM
How it was run: (§3)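 Luminescent ATP measurement with CellTiter-Glo gives viability, scaled between DMSO-only wells (100%) and media-only wells (0%). Cells, 500 per well, faced library compounds for 48 hours at 37C.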

[4] = Quantitative High-Throughput drug screen in 47 multiple myeloma cell lines against the NCATS MIPE library collection: JIM3_ECACC cell viability assay (AID 1918963; also: nearly all actives have a fitted effect of over 35% in size); settings: JIM3 myeloma viability, CellTiter-Glo ATP, 48 h; series mostly up to 45.8 µM
How it was run: as §1

[5] = Quantitative High-Throughput drug screen in 47 multiple myeloma cell lines against the NCATS MIPE library collection: Karpas25_ECACC cell viability assay (AID 1918968; also: nearly all actives have a fitted effect of over 35% in size); settings: Karpas25 myeloma viability, CellTiter-Glo ATP, 48 h; series mostly up to 45.8 µM
How it was run: as §2

[6] = Quantitative High-Throughput drug screen in 47 multiple myeloma cell lines against the NCATS MIPE library collection: KMS27_JCRB cell viability assay (AID 1918970); settings: KMS27 myeloma cells, CellTiter-Glo ATP viability, 48 h; viability (% of DMSO): at 45.8 µM (top of the series); also: nearly all actives have a fitted effect of over 30% in size
How it was run: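 Myeloma cells (500 per well) were exposed to MIPE 4.0 compounds for 48 h at 37 °C, 5% CO2; viability was read as ATP luminescence with CellTiter-Glo, normalized to DMSO-only (100%) and media-only (0%) wells.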

[7] = Quantitative High-Throughput drug screen in 47 multiple myeloma cell lines against the NCATS MIPE library collection: KMS12BM_JCRB cell viability assay (AID 1918971); settings: KMS12BM myeloma viability, CellTiter-Glo ATP, 48 h; viability, % of DMSO: at 45.8 µM (top of the series); also: nearly all actives have a fitted effect of over 35% in size
How it was run: as §2

[8] = Quantitative High-Throughput drug screen in 47 multiple myeloma cell lines against the NCATS MIPE library collection: H1112_PLB cell viability assay (AID 1918967; also: nearly all actives have a fitted effect of over 30% in size); settings: H1112 myeloma cells viability, ATP luminescence, 48 h; series mostly up to 45.8 µM
How it was run: as §2

[9] = Quantitative High-Throughput drug screen in 47 multiple myeloma cell lines against the NCATS MIPE library collection: JJN3_DSMZ cell viability assay (AID 1918966; also: nearly all actives have a fitted effect of over 50% in size); settings: JJN3 myeloma cells viability, CellTiter-Glo ATP, 48 h; series mostly up to 45.8 µM
How it was run: as §2

[10] = Quantitative High-Throughput drug screen in 47 multiple myeloma cell lines against the NCATS MIPE library collection: KMS12PE_JCRB cell viability assay (AID 1918972); settings: KMS12PE myeloma viability, CellTiter-Glo ATP, 48 h; viability: at 45.8 µM (top of the series); also: nearly all actives have a fitted effect of over 30% in size
How it was run: as §3

Measured: Potency
Potency is read from the fitted curve at half-maximal effect.

CN(C)c1nc(Cc2ccc(NC(=O)c3ccc(C(F)(F)F)cc3)cc2)nc(N(C)C)c1CC(=O)O
inactive: [1] | [2] | [3]

COc1nc(C)cnc1NS(=O)(=O)c1cccnc1-c1ccc(-c2nnco2)cc1
inconclusive: [1] 0.743 µM [cytotoxic, full curve, poor fit] | [5] 0.469 µM [cytotoxic, partial curve, poor fit] | [7] 8.33 µM [cytotoxic, partial curve, poor fit]
inactive: [4] | [2] | [6]

COc1ccc(-c2ccc3c(N4CCOC[C@H]4C)nc(N4CCOC[C@H]4C)nc3n2)cc1CO
active: [5] 0.0166 µM | [7] 0.0118 µM
inconclusive: [1] 0.0083 µM [cytotoxic, full curve] | [4] 0.0235 µM [cytotoxic, full curve] | [2] 0.743 µM [cytotoxic, partial curve] | [8] 0.0264 µM [cytotoxic, full curve] | [6] 0.0105 µM [cytotoxic, full curve]

NC(=O)Nc1cc(-c2cccc(F)c2)sc1C(=O)N[C@H]1CCCNC1
active: [1] 0.0743 µM | [2] 0.105 µM

COc1cc(NCc2ccc3nc(N)nc(N)c3c2C)cc(OC)c1OC
active: [1] 8.33 µM | [4] 0.418 µM | [3] 1.32 µM | [9] 3.72 µM | [10] 0.935 µM

COc1cc2c(Nc3ccc(NC(=O)c4ccccc4)cc3)ncnc2cc1OCCCN1CCOCC1
inactive: [2]
active: [1] 8.33 µM
inconclusive: [4] 29.6 µM [cytotoxic, single point] | [8] 33.2 µM [cytotoxic, single point] | [6] 0.0662 µM [cytotoxic, full curve, poor fit] | [7] 37.2 µM [cytotoxic, single point]

CC[C@H](CC#N)OC(=O)N[C@@H](C)c1cccc(NC(=O)Nc2ccc(-c3cnco3)c(OC)c2)c1
active: [4] 1.32 µM | [6] 14.8 µM
inconclusive: [1] 1.05 µM [cytotoxic, full curve, poor fit] | [9] 1.48 µM [cytotoxic, full curve, poor fit] | [5] 16.6 µM [cytotoxic, partial curve]

COC(=O)Nc1nc2ccc(C(=O)c3ccccc3)cc2[nH]1
active: [4] 2.96 µM
inconclusive: [1] 18.7 µM [cytotoxic, partial curve] | [2] 0.105 µM [cytotoxic, full curve, poor fit] | [6] 0.418 µM [cytotoxic, full curve, poor fit] | [10] 0.418 µM [cytotoxic, full curve, poor fit]

CCOC(=O)[C@@H](N)CCC(=O)N[C@@H](CSCc1ccccc1)C(=O)N[C@@H](C(=O)OCC)c1ccccc1
inconclusive: [1] 37.2 µM [cytotoxic, single point] | [4] 26.4 µM [cytotoxic, single point] | [2] 8.33 µM [cytotoxic, partial curve, poor fit] | [7] 33.2 µM [cytotoxic, single point] | [10] 26.4 µM [cytotoxic, single point]

C[C@@H]1CC(=O)NN=C1c1ccc(NN=C(C#N)C#N)cc1
inconclusive: [1] 37.2 µM [cytotoxic, single point]
inactive: [2]
active: [4] 20.9 µM | [5] 18.7 µM

CC[C@]1(O)C[C@H]2CN(CCC3=c4ccccc4=N[C]3[C@@](C(=O)OC)(c3cc4c(cc3OC)N(C)[C@H]3[C@@](O)(C(N)=O)[C@H](O)[C@]5(CC)C=CCN6CC[C@]43[C@@H]65)C2)C1
active: [9] 0.372 µM | [8] 0.0332 µM
inconclusive: [1] 0.166 µM [cytotoxic, full curve] | [4] 0.0017 µM [cytotoxic, full curve] | [3] 0.0118 µM [cytotoxic, full curve] | [5] 0.0105 µM [cytotoxic, full curve]

C=CC(=O)Nc1cc(NC(=O)c2ccc(C)c(NC(=O)c3ccno3)c2)cc(C(F)(F)F)c1
inconclusive: [1] 33.2 µM [cytotoxic, single point] | [4] 33.2 µM [cytotoxic, single point] | [2] 2.09 µM [cytotoxic, partial curve, poor fit] | [6] 6.62 µM [cytotoxic, partial curve, poor fit]
active: [5] 14.8 µM

O=[N+]([O-])c1cn2c(n1)OC[C@@H](OCc1ccc(OC(F)(F)F)cc1)C2
inconclusive: [3] 0.418 µM [cytotoxic, full curve, poor fit] | [9] 0.118 µM [cytotoxic, full curve, poor fit] | [6] 0.0017 µM [cytotoxic, full curve, poor fit] | [7] 3.32 µM [cytotoxic, partial curve, poor fit]
inactive: [1] | [4]

COc1cc(OC)c(NC(=O)Nc2cc(C)on2)cc1Cl
inactive: [3] | [8]
inconclusive: [1] 2.09 µM [rising, full curve, poor fit] | [4] 0.001 µM [cytotoxic] | [9] 0.0235 µM [rising, full curve, poor fit] | [6] 37.2 µM [cytotoxic, single point] | [7] 0.0526 µM [rising, full curve, poor fit]

3 compounds already listed, sorted by length of the SMILES, low to high.
COc1cc(OC)c(NC(=O)Nc2cc(C)on2)cc1Cl
inactive: [3] | [8]
inconclusive: [1] 2.09 µM [rising, full curve, poor fit] | [4] 0.001 µM [cytotoxic] | [9] 0.0235 µM [rising, full curve, poor fit] | [6] 37.2 µM [cytotoxic, single point] | [7] 0.0526 µM [rising, full curve, poor fit]

C[C@@H]1CC(=O)NN=C1c1ccc(NN=C(C#N)C#N)cc1
inconclusive: [1] 37.2 µM [cytotoxic, single point]
inactive: [2]
active: [4] 20.9 µM | [5] 18.7 µM

C=CC(=O)Nc1cc(NC(=O)c2ccc(C)c(NC(=O)c3ccno3)c2)cc(C(F)(F)F)c1
inconclusive: [1] 33.2 µM [cytotoxic, single point] | [4] 33.2 µM [cytotoxic, single point] | [2] 2.09 µM [cytotoxic, partial curve, poor fit] | [6] 6.62 µM [cytotoxic, partial curve, poor fit]
active: [5] 14.8 µM

Next compounds:

CN(C)c1nc(N(C)C)nc(N(C)C)n1
inconclusive: [2] 11.8 µM [cytotoxic, single point] | [3] 37.2 µM [cytotoxic, single point] | [9] 16.6 µM [cytotoxic, partial curve, poor fit]
inactive: [1] | [8] | [5] | [7] | [10]

CCOc1ccn(-c2ccc(F)cc2)c(=O)c1C(=O)Nc1ccc(Oc2ccnc(N)c2Cl)c(F)c1
inconclusive: [1] 37.2 µM [cytotoxic, single point] | [2] 18.7 µM [cytotoxic, partial curve, poor fit] | [3] 14.8 µM [cytotoxic, partial curve, poor fit] | [9] 4.69 µM [cytotoxic, partial curve, poor fit] | [6] 5.9 µM [cytotoxic, partial curve, poor fit] | [7] 16.6 µM [cytotoxic, partial curve, poor fit] | [10] 3.72 µM [cytotoxic, full curve]
active: [8] 13.2 µM

CCCCCCCCCCCCCCCC(=O)O[C@H]1[C@@H](O)[C@@H](O)[C@@H]([C@H](NC(=O)[C@@H]2C[C@@H](CCC)CN2C)[C@H](C)Cl)O[C@@H]1SC
inconclusive: [1] 0.332 µM [cytotoxic, full curve, poor fit] | [3] 16.6 µM [cytotoxic, partial curve, poor fit] | [9] 16.6 µM [cytotoxic, partial curve, poor fit] | [5] 33.2 µM [cytotoxic, single point]
inactive: [2]

O=C(O)c1ccc(-n2nc(-c3ccccc3O)nc2-c2ccccc2O)cc1
active: [2] 18.7 µM | [3] 18.7 µM
inconclusive: [1] 26.4 µM [cytotoxic, single point] | [9] 14.8 µM [cytotoxic, partial curve, poor fit] | [8] 20.9 µM [cytotoxic, partial curve, poor fit] | [10] 14.8 µM [cytotoxic, partial curve]

CC(=O)N1CCN(c2ccc(OC[C@H]3CO[C@](Cn4ccnc4)(c4ccc(Cl)cc4Cl)O3)cc2)CC1
inactive: [2]
inconclusive: [1] 23.5 µM [cytotoxic, single point] | [3] 9.35 µM [cytotoxic, partial curve] | [9] 37.2 µM [cytotoxic, partial curve, poor fit] | [5] 23.5 µM [cytotoxic, partial curve] | [6] 5.26 µM [cytotoxic, partial curve, poor fit] | [7] 5.9 µM [cytotoxic, partial curve, poor fit]

COc1ccc(CCN2CCN(CCCc3ccccc3)CC2)cc1OC
inconclusive: [1] 0.235 µM [rising, full curve, poor fit] | [2] 1.48 µM [cytotoxic, full curve, poor fit] | [3] 23.5 µM [cytotoxic, partial curve, poor fit] | [9] 0.132 µM [rising, full curve, poor fit] | [5] 23.5 µM [cytotoxic, single point] | [6] 18.7 µM [cytotoxic, partial curve, poor fit] | [10] 20.9 µM [cytotoxic, partial curve, poor fit]
inactive: [8] | [7]

Cc1n[nH]c(C)c1Cc1sc2c(c1C(=O)N1C[C@H](O)CO1)c(=O)n(C)c(=O)n2CC(C)C
inconclusive: [3] 2.64 µM [rising, full curve, poor fit] | [9] 9.35 µM [cytotoxic, partial curve, poor fit] | [6] 0.0264 µM [cytotoxic, full curve, poor fit] | [10] 0.0332 µM [cytotoxic, full curve, poor fit]
inactive: [1] | [2] | [8]
